# Results as given in the supplement of paper PMC10032668.
# The chains behind the UniProt entries cited, without tags or fusion partners.
# MYH9, P35579, UniProt P35579, whole entry: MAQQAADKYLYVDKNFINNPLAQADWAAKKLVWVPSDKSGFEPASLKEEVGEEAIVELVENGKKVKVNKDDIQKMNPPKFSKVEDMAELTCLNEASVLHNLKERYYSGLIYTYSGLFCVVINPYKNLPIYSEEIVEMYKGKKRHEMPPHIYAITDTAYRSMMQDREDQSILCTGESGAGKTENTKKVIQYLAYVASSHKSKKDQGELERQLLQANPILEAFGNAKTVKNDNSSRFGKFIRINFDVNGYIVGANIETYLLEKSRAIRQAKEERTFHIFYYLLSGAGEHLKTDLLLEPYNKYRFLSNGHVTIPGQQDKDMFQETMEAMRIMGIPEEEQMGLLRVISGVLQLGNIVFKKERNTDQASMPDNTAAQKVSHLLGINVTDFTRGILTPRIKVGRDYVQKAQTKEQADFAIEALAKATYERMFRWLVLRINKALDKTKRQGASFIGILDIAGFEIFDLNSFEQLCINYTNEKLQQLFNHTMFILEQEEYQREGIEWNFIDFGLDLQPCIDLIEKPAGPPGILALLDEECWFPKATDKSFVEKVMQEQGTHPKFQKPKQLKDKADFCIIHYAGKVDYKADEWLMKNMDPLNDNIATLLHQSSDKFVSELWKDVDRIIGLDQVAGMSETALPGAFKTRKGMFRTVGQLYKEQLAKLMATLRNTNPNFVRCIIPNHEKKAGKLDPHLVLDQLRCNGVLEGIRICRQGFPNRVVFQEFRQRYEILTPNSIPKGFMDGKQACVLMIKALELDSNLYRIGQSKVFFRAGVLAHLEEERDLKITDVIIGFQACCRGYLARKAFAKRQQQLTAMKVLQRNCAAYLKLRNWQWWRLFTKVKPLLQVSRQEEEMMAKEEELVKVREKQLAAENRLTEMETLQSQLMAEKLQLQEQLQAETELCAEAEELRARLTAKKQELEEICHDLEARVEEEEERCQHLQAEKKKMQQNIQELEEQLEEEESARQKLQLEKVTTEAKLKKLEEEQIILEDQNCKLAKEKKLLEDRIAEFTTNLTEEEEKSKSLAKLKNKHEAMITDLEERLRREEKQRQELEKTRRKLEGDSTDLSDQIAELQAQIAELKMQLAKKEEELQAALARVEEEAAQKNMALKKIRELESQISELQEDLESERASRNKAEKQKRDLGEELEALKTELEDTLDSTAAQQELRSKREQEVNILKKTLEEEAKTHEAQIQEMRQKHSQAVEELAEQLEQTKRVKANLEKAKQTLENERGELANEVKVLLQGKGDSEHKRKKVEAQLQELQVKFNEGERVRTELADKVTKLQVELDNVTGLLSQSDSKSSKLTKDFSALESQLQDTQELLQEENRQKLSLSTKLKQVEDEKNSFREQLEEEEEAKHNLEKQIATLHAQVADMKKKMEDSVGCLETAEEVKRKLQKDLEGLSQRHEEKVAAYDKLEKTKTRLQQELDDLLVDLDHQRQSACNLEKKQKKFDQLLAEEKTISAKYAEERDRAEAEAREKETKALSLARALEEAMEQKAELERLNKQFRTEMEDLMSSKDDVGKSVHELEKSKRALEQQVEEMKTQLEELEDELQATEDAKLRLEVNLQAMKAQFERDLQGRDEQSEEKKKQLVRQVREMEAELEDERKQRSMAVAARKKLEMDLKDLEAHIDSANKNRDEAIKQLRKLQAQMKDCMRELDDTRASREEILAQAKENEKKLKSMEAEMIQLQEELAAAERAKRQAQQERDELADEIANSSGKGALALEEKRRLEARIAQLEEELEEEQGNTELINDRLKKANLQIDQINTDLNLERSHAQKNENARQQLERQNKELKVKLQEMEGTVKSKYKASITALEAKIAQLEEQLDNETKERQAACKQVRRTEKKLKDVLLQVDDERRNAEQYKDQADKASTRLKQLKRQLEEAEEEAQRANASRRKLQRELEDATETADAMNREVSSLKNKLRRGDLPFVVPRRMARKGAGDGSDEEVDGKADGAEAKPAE
# RGPD5, Q99666, UniProt Q99666, whole entry: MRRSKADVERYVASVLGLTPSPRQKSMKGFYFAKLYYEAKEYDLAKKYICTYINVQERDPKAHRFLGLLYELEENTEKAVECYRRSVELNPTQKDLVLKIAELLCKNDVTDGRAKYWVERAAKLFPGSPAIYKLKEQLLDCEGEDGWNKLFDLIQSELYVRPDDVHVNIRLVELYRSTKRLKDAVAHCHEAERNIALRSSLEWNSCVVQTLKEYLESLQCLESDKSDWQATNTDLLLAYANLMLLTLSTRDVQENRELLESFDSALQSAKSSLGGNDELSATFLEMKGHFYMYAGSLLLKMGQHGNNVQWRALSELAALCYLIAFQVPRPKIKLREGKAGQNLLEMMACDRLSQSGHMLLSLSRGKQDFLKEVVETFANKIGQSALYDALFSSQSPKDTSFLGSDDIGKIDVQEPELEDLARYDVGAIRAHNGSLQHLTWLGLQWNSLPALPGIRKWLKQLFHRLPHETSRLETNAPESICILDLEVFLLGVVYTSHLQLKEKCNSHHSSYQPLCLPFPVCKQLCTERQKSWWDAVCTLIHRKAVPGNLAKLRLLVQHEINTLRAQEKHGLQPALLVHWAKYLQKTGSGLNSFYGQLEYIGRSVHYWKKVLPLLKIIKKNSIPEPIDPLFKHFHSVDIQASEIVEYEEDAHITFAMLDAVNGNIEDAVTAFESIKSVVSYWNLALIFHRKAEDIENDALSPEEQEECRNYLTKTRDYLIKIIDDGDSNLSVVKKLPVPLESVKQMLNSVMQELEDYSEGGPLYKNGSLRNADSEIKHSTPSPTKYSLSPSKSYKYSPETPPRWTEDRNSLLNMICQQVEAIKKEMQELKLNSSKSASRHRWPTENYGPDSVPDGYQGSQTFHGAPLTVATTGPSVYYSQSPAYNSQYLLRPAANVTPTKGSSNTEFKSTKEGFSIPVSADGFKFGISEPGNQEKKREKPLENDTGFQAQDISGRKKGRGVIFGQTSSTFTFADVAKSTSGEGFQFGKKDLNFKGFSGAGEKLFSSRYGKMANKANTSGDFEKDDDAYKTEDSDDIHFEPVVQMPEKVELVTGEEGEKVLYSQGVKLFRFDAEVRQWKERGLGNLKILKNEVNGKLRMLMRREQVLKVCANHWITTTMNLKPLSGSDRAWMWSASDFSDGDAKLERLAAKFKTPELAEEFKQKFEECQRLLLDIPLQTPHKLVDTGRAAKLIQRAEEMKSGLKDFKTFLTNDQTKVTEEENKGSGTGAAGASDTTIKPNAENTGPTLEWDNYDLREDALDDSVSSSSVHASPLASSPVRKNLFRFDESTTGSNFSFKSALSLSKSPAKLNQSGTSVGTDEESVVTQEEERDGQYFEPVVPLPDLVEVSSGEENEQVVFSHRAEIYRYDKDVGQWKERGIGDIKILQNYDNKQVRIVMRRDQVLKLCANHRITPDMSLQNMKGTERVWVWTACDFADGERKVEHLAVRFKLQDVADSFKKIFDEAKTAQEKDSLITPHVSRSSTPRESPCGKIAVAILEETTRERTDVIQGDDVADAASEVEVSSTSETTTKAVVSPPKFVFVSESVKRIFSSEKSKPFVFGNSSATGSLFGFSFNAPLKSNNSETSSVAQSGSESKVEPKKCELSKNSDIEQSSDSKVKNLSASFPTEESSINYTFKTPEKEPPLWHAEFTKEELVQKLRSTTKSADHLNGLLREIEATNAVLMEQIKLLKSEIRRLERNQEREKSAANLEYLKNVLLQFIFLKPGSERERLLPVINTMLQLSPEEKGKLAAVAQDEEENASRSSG
# The other results are listed elsewhere or left out. Only hits are listed; about a third recur on repeated control peptides.
# How the values were obtained:
# Experiment in all cases: PRISMA enrichment of interactor (LFQ) in peptide spot vs all other peptide spots (log2 fold change); higher = stronger / more specific binding of the interactor to the peptide
# [1] = biological target: ABCF1, Q8NE71
# Protocol: (§1)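 PRISMA: 15-aa overlapping tiles (offset 8 aa) of 60 microproteins, plus SOS1/GLUT1 control peptides, were spot-synthesized on cellulose membranes in triplicate. Membranes were incubated with benzonase-treated HEK293T lysate, and bound proteins were identified by LC-MS/MS with LFQ. Enrichment is the log2 fold change of each protein in one spot versus all other spots. Only interactors passing the significance cutoff are listed.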
# [2] = biological target: ACACA, Q13085
# Protocol: as §1
# [3] = biological target: AHSG, P02765
# Protocol: as §1
# [4] = biological target: APEX1, P27695
# Protocol: as §1
# [5] = biological target: ASPH, Q12797
# Protocol: as §1
# [6] = biological target: BSG, P35613
# Protocol: as §1
# [7] = biological target: BUB1B, O60566
# Protocol: as §1
# [8] = biological target: CENPE, Q02224
# Protocol: as §1
# [9] = biological target: CHD4, Q14839
# Protocol: as §1
# [10] = biological target: DCTN1, Q14203
# Protocol: as §1
# [11] = biological target: DDX28, Q9NUL7
# Protocol: as §1
# [12] = biological target: DNTTIP2, Q5QJE6
# Protocol: as §1
# [13] = biological target: DSTN, P60981
# Protocol: as §1
# [14] = biological target: EWSR1, Q01844
# Protocol: as §1
# [15] = biological target: FAM98B, Q52LJ0
# Protocol: as §1
# [16] = biological target: GPI, P06744
# Protocol: as §1
# [17] = biological target: GPN1, Q9HCN4
# Protocol: as §1
# [18] = biological target: HERC5, Q9UII4
# Protocol: as §1
# [19] = biological target: HIST1H1E, P10412
# Protocol: as §1
# [20] = biological target: HMGA2, P52926
# Protocol: as §1
# [21] = biological target: KNOP1, Q1ED39
# Protocol: as §1
# [22] = biological target: MAPK1, P28482
# Protocol: as §1
# [23] = biological target: MCMBP, Q9BTE3
# Protocol: as §1
# [24] = biological target: MCRIP1, C9JLW8
# Protocol: as §1
# [25] = biological target: MMTAG2, Q9BU76
# Protocol: as §1
# [26] = biological target: MSH6, P52701
# Protocol: as §1
# [27] = biological target: MYH9, P35579
# Protocol: as §1
# [28] = biological target: NELFA, Q9H3P2
# Protocol: as §1
# [29] = biological target: NIP7, Q9Y221
# Protocol: as §1
# [30] = biological target: NUFIP2, Q7Z417
# Protocol: as §1
# [31] = biological target: PDCD4, Q53EL6
# Protocol: as §1
# [32] = biological target: PKP2, Q99959
# Protocol: as §1
# [33] = biological target: POP4, O95707
# Protocol: as §1
# [34] = biological target: PPP1CA, P62136
# Protocol: as §1
# [35] = biological target: PRPF31, Q8WWY3
# Protocol: as §1
# [36] = biological target: PSMB1, P20618
# Protocol: as §1
# [37] = biological target: PUM1, Q14671
# Protocol: as §1
# [38] = biological target: RAB8A, P61006
# Protocol: as §1
# [39] = biological target: RGPD5, Q99666
# Protocol: as §1
# [40] = biological target: RHEB, Q15382
# Protocol: as §1
# [41] = biological target: RNF219, Q5W0B1
# Protocol: as §1
# [42] = biological target: RNPS1, Q15287
# Protocol: as §1
# [43] = biological target: SETD1A, O15047
# Protocol: as §1
# [44] = biological target: SLC39A7, Q92504
# Protocol: as §1
# [45] = biological target: SNRNP40, Q96DI7
# Protocol: as §1
# [46] = biological target: SPAST, Q9UBP0
# Protocol: as §1
# [47] = biological target: SPCS2, Q15005
# Protocol: as §1
# [48] = biological target: SURF6, O75683
# Protocol: as §1
# [49] = biological target: UPF1, Q92900
# Protocol: as §1
# [50] = biological target: UTP20, O75691
# Protocol: as §1
# [51] = biological target: VMP1, Q96GC9
# Protocol: as §1
# [52] = biological target: WDR18, Q9BV38
# Protocol: as §1
# [53] = biological target: ZC3HAV1, Q7Z2W4
# Protocol: as §1
binder,measurement,setting,value
EVLKSKPNSSHWHTG [GAS5],PRISMA enrichment of interactor (log2),[1],5.13
same,PRISMA enrichment of interactor (log2),[2],5.53
same,PRISMA enrichment of interactor (log2),[3],3.7
same,PRISMA enrichment of interactor (log2),[4],6.1
same,PRISMA enrichment of interactor (log2),[5],3.6
same,PRISMA enrichment of interactor (log2),[6],4.2
same,PRISMA enrichment of interactor (log2),[7],5.13
same,PRISMA enrichment of interactor (log2),[8],4.22
same,PRISMA enrichment of interactor (log2),[9],5.17
same,PRISMA enrichment of interactor (log2),[10],5.44
same,PRISMA enrichment of interactor (log2),[11],6.29
same,PRISMA enrichment of interactor (log2),[12],4.6
same,PRISMA enrichment of interactor (log2),[13],7.14
same,PRISMA enrichment of interactor (log2),[14],5.87
same,PRISMA enrichment of interactor (log2),[15],7.4
same,PRISMA enrichment of interactor (log2),[16],4.64
same,PRISMA enrichment of interactor (log2),[17],4.9
same,PRISMA enrichment of interactor (log2),[18],5.29
same,PRISMA enrichment of interactor (log2),[19],5.36
same,PRISMA enrichment of interactor (log2),[20],3.94
same,PRISMA enrichment of interactor (log2),[21],5.03
same,PRISMA enrichment of interactor (log2),[22],6.8
same,PRISMA enrichment of interactor (log2),[23],4.9
same,PRISMA enrichment of interactor (log2),[24],3.92
same,PRISMA enrichment of interactor (log2),[25],4.7
same,PRISMA enrichment of interactor (log2),[26],5.39
same,PRISMA enrichment of interactor (log2),[27],5.67
same,PRISMA enrichment of interactor (log2),[28],4.39
same,PRISMA enrichment of interactor (log2),[29],4.18
same,PRISMA enrichment of interactor (log2),[30],4.93
same,PRISMA enrichment of interactor (log2),[31],3.99
same,PRISMA enrichment of interactor (log2),[32],6.3
same,PRISMA enrichment of interactor (log2),[33],3.89
same,PRISMA enrichment of interactor (log2),[34],5.48
same,PRISMA enrichment of interactor (log2),[35],4.18
same,PRISMA enrichment of interactor (log2),[36],5.84
same,PRISMA enrichment of interactor (log2),[37],5.45
same,PRISMA enrichment of interactor (log2),[38],8.97
same,PRISMA enrichment of interactor (log2),[39],6.49
same,PRISMA enrichment of interactor (log2),[40],4.85
same,PRISMA enrichment of interactor (log2),[41],4.8
same,PRISMA enrichment of interactor (log2),[42],5.02
same,PRISMA enrichment of interactor (log2),[43],5.79
same,PRISMA enrichment of interactor (log2),[44],4.98
same,PRISMA enrichment of interactor (log2),[45],8.97
same,PRISMA enrichment of interactor (log2),[46],4.69
same,PRISMA enrichment of interactor (log2),[47],4.56
same,PRISMA enrichment of interactor (log2),[48],4.88
same,PRISMA enrichment of interactor (log2),[49],4.9
same,PRISMA enrichment of interactor (log2),[50],6.66
same,PRISMA enrichment of interactor (log2),[51],3.82
same,PRISMA enrichment of interactor (log2),[52],4.81
same,PRISMA enrichment of interactor (log2),[53],6.39

# Fetched one by one from above:
binder,measurement,setting,value
EVLKSKPNSSHWHTG [GAS5],PRISMA enrichment of interactor (log2),[51],3.82
same,PRISMA enrichment of interactor (log2),[27],5.67
same,PRISMA enrichment of interactor (log2),[53],6.39
